The target of this experiment is rKCNQ3 (GenBank accession number AF087454) (rat (printed only as the prefix r in rKCNQ3)) (UniProt O88944). The experiment can be described thus: inferred from two-electrode voltage clamp of Xenopus oocytes coexpressing both subunits; no direct binding assay.

Protein sequences, listed by entry. Tags and fused reporters are not part of them. Lines headed by an entry give the natural chain unless they say otherwise; changes in a name come on top.
UniProt O88944: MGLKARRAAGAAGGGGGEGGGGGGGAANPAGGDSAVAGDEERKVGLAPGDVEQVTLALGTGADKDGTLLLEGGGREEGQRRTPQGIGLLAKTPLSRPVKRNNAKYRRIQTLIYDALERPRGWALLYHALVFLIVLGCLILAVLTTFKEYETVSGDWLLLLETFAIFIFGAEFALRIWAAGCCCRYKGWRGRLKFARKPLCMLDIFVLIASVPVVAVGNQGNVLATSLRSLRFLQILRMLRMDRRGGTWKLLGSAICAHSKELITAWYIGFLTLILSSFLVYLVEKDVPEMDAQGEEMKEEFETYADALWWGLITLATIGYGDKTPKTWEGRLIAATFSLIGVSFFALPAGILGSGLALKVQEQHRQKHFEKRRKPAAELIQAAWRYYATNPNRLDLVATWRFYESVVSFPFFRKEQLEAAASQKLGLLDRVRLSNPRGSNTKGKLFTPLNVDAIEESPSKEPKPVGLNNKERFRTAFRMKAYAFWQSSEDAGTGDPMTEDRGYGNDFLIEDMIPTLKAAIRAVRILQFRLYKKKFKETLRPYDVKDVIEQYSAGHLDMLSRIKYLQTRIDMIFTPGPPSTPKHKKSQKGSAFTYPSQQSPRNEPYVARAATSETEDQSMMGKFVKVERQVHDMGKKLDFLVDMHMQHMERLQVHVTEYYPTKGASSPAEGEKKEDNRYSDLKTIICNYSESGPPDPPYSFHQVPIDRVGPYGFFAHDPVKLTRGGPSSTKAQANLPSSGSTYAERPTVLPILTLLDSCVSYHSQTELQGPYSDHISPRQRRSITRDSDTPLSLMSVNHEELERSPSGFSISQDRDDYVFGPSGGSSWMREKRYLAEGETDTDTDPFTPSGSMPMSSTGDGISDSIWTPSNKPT
UniProt Q9NR82: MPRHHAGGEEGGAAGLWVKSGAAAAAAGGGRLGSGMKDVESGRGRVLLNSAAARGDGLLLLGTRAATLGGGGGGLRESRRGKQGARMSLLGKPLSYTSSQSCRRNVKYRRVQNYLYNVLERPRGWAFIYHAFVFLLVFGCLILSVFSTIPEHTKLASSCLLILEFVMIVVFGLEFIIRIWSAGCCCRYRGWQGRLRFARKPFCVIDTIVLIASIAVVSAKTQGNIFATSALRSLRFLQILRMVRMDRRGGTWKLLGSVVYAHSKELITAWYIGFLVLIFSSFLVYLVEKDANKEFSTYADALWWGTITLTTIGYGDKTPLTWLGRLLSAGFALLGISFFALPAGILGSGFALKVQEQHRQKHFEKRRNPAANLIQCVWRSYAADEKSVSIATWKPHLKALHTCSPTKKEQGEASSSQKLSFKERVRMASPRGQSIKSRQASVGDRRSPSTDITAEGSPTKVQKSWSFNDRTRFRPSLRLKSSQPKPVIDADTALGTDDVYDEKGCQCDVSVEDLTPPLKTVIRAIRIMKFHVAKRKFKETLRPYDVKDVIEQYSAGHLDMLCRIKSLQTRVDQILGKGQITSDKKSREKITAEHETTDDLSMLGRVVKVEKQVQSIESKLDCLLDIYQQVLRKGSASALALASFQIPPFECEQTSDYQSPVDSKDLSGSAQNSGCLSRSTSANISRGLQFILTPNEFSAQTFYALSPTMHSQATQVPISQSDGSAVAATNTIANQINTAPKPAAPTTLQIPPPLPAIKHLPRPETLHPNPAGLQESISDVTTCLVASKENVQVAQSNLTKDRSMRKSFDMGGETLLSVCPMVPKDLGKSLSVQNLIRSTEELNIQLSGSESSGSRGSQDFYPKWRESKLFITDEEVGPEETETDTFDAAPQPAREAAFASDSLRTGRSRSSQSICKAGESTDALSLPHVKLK

These are yes or no findings as the source states them, for the method shown. Some results given as binding are weak or reduced against the parent protein; the word gives no strength.

For one substance, binding results are on record in patent US20020076809A1.

As for “human potassium channel KCNQ5 (from UniProt Q9NR82 1-932)”, the binding result was “binds”.
